Results are given in words; binding and its absence hold for the method and conditions named. In cells and extracts the contact can be indirect. Here binding means that the protein was enriched with, or labelled near, the bait; the list need not be complete. Where a sequence is shown, tags or fusion partners need not be part of it.
Target: T1, phosphatase and actin regulator-1 (PHACTR1), overexpressed from adenovirus Ad-PHACTR1 (human) (UniProt Q9C0D0)
T1 sequence: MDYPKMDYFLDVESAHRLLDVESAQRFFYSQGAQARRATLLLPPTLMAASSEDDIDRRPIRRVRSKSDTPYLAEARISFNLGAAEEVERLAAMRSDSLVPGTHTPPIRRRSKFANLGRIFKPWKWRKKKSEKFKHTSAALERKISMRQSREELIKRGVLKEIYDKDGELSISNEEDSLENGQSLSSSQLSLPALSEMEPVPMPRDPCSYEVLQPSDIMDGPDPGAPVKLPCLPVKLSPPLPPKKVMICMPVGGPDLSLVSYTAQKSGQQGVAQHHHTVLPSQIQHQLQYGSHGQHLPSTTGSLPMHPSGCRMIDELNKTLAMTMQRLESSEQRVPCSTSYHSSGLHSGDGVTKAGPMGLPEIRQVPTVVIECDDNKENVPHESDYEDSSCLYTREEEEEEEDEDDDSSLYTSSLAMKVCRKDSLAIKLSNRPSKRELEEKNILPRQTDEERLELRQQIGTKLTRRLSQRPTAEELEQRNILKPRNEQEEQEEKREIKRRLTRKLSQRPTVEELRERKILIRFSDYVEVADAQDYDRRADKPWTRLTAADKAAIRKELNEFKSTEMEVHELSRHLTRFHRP
Assay: affinity purification with mass spectrometry; HUVECs treated with control adenovirus or Ad-PHACTR1 24 h, then TNF-α 6 h; lysate in IP lysis buffer (150 mM NaCl, 0.5% Triton X-100, 0.5% NP-40, pH 7.5) on Anti-flag M2 affinity gel overnight at 4°C; 10 washes; gel slices to mass spectrometry

Chains of the proteins cited; added tags and fusions are not shown.
UniProt P11142: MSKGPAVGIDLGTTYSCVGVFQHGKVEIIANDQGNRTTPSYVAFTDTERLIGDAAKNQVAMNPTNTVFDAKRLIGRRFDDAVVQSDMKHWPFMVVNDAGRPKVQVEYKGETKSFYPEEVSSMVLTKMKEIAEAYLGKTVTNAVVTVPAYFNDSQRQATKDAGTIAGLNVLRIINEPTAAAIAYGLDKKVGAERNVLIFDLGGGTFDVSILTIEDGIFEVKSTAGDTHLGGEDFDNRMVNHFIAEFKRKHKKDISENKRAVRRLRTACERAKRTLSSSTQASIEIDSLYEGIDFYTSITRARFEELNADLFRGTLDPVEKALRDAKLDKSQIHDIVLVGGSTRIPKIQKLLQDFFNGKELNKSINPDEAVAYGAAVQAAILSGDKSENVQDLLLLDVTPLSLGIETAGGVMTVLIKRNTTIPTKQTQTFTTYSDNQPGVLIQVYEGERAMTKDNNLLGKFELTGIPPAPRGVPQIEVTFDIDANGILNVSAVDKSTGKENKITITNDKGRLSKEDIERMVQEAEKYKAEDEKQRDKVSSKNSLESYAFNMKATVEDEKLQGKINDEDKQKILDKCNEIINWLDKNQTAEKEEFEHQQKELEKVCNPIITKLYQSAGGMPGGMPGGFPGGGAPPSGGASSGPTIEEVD
UniProt P35580: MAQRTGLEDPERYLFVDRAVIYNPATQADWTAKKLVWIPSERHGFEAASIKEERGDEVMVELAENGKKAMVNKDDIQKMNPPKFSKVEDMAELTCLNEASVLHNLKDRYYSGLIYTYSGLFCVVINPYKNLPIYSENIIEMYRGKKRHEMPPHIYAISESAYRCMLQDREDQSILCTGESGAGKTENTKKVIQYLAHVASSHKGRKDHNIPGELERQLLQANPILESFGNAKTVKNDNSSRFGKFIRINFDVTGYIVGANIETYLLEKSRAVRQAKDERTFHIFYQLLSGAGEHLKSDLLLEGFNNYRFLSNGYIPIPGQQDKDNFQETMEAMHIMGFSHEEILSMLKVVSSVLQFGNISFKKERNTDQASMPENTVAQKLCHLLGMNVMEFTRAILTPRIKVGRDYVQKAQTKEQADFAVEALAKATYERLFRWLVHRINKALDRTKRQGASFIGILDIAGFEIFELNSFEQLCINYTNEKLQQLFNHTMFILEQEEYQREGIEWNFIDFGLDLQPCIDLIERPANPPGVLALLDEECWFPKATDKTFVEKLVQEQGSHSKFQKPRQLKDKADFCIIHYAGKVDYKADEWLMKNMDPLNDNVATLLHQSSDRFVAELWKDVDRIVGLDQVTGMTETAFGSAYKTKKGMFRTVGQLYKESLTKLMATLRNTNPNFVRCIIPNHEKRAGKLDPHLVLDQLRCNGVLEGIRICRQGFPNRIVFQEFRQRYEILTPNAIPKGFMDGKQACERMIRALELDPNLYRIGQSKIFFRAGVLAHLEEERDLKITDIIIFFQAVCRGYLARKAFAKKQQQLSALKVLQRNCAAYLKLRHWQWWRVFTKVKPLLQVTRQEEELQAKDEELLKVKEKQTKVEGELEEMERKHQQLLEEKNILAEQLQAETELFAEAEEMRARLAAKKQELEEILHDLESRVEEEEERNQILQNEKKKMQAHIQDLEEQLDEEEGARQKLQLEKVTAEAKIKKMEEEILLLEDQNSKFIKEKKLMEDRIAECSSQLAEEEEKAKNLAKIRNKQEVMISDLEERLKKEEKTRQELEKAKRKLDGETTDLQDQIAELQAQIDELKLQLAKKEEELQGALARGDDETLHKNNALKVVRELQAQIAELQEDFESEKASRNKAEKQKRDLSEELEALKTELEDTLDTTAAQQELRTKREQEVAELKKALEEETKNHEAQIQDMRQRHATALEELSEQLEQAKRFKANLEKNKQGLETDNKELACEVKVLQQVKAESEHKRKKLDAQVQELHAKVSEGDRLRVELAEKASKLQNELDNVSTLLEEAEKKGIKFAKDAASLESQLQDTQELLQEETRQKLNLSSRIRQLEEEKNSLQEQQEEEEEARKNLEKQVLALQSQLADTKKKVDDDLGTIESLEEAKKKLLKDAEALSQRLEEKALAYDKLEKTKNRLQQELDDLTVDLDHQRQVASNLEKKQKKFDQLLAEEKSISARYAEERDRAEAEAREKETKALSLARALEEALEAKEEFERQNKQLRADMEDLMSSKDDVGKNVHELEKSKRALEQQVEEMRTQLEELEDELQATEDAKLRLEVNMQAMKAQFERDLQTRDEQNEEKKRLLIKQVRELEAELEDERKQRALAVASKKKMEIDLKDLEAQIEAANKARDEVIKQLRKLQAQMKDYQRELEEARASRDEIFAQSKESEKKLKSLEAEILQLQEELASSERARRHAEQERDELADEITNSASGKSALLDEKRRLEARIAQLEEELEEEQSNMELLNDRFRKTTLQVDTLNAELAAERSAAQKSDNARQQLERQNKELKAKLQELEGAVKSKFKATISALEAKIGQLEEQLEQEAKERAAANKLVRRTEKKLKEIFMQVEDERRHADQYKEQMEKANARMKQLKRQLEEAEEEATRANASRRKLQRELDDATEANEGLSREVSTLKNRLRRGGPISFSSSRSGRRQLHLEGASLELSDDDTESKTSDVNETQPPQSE
UniProt P36873: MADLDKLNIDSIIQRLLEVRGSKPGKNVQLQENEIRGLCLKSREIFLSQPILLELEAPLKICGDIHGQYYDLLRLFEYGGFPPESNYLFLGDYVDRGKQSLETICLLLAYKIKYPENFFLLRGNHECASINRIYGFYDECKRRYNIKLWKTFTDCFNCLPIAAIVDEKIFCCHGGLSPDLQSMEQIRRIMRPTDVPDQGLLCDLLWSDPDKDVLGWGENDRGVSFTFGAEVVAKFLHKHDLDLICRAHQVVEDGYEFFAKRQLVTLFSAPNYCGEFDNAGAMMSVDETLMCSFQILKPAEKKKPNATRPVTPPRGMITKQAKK

| binding | Substance |
| --- | --- |
| binds | heat shock protein family A member 8 (HSPA8) (from UniProt P11142 1-646) |
| binds | myosin heavy chain 10 (MYH10) (from UniProt P35580 1-1976) |
| binds | protein phosphatase 1 catalytic subunit gamma (PPP1CC) (from UniProt P36873 1-323) |
